For some assays here: Strings that start with PEPTIDE1 are HELM notation: dots part the residues, brackets hold end groups and non-standard residues. Positions of bridges follow the written chain, without caps; N, C: chain ends. Non-standard residues stand in square brackets, D forms with d. Residues, ends and D or L forms follow the SMILES beside them. Groups on a side chain read outwards from the residue. Chains are numbered I, II in the order given. Dap = NC[C@H](N)C(=O)O
Experiments:
[1] = general procedure: Fmoc solid-phase peptide synthesis; Rink-amide resin; PyBOP or HOBt with DIPEA or DIC in NMP or DMF; HATU/DIPEA or HOBt/DIC/DIPEA for; conditions: conjugation step
[2] = tested on: Bacillus subtilis (strain BR151); format: cell-based; conditions: MHC on hRBC / MIC B. subtilis
Method: (§1) Antimicrobial activity was assayed against Bacillus subtilis (strain BR151), Escherichia coli (strain DH5α) and Pseudomonas aeruginosa (strain PA01). Microdilution broth method was used to determine the minimal inhibitory concentration (MIC). A colony of bacteria was grown in LB-medium overnight at 37° C. The concentration was quantified by measuring absorbance at 600 nm and diluted to OD600=0.1 (1×10^8 CFU/mL). The samples were prepared as stock solutions of 1 mg mL^−1 in H2O and diluted serially by ⅔ in nutrient LB in a 96-well microtiterplate (Cornstar, polypropylene, untreated). The sample solutions (50 μL) were mixed with the diluted bacterial suspension with an OD600 nm of 0.001 (50 μL). […] The plates were incubated at 37° C. until satisfactory growth (18-24 h). For each test, two columns of the plate were kept for sterility control (SC, broth only) and growth control (GC, broth with bacterial inoculums, no antibiotics). 10 μL of a solution of MTT (0.1% in H2O) was added to each well. The minimal inhibitory concentration (MIC) was defined as the lowest concentration of the antimicrobial substance (peptide dendrimer) that inhibited visible growth of the tested bacteria (yellow) with the unaided eye. For microbiological study the linear peptide LysTyrLysLysAlaLeuLysLysLeuAlaLysLeuLeu (SEQ ID No. 1) was used as reference.
(§2) The AMPD library was tested for their antimicrobial activity against B. subtilis BR151, a Gram-positive bacterium and E. coli DH5α, another Gram-negative bacterium, to cover a broader spectrum of different bacteria. […] Therefore no explicit SAR can be established, but clearly the hydrophobic amino acids Ala and Tyr seem to have a significant influence in reducing activity.

[3] = tested on: Escherichia coli (strain DH5α); format: cell-based; conditions: MHC on hRBC / MIC E. coli
Method: as §1, §2

[4] = tested on: Pseudomonas aeruginosa (strain PA01); format: cell-based; conditions: MHC on hRBC / MIC PAO1
Method: as §1
All peptides were tested for their activity against P. aeruginosa PAO1 in a broth dilution assay (Wiegand, I. et al., 2008, Nat. Protoc., 3, 163-75; Clinical and Laboratory Standards Institute document M7-A7 7th Edition) to determine the MIC (minimal inhibitory concentration) values. The stock solutions of the peptide dendrimers were diluted serially by ⅔ in nutrient LB in 96-well microtiter plates. Bacteria were grown in nutrient LB overnight at 37° C. After dilution the bacteria were added to the peptides and incubated overnight (18-24 h) at 37° C. […] The position of the amino acids between the branching units seems to be optimal if the hydrophobic amino acid is the first counting from C-terminus and the charged one is on the second position. Introducing Ala as additional hydrophobic amino acid reduces activity (MSt-120). […] Also assembling charged or hydrophobic sections between the branching units leads to loss of activity whereas altering L-amino acids to D-amino acids maintains activity leading to the hypothesis that the mechanism of action should not be receptor mediated.

Compound	conjugation yield [1]	further results
PEPTIDE1{[CH2CO].R.L.K.R.L.K.R.L.[am]}|PEPTIDE2{[CH2CO].R.L}|PEPTIDE3{[CH2CO].R.L.K.R.L}|PEPTIDE4{[CH2CO].R.L}|PEPTIDE5{R.L.K.R.L.C.[am]}|PEPTIDE6{R.L.K.R.L.C.[am]}|PEPTIDE7{R.L.K.R.L.C.[am]}|PEPTIDE8{R.L.K.R.L.C.[am]}|PEPTIDE9{R.L}|PEPTIDE10{R.L}|PEPTIDE11{R.L}|PEPTIDE12{R.L}$PEPTIDE1,PEPTIDE2,4:R3-3:R2|PEPTIDE1,PEPTIDE3,7:R3-6:R2|PEPTIDE3,PEPTIDE4,4:R3-3:R2|PEPTIDE1,PEPTIDE5,1:R3-6:R3|PEPTIDE2,PEPTIDE6,1:R3-6:R3|PEPTIDE3,PEPTIDE7,1:R3-6:R3|PEPTIDE4,PEPTIDE8,1:R3-6:R3|PEPTIDE5,PEPTIDE9,3:R3-2:R2|PEPTIDE6,PEPTIDE10,3:R3-2:R2|PEPTIDE7,PEPTIDE11,3:R3-2:R2|PEPTIDE8,PEPTIDE12,3:R3-2:R2$$$V2.0	31%	
(KL)32(KKL)16(KKLCxKL)8(KKL)4(KKL)2KKL	17.0%	
(KL)16(KKLCxKL)8(KKL)4(KKL)2KKL	37.0%	
PEPTIDE1{[CH2CO].K.L.K.K.L.K.K.L.[am]}|PEPTIDE2{[CH2CO].K.L}|PEPTIDE3{[CH2CO].K.L.K.K.L}|PEPTIDE4{[CH2CO].K.L}|PEPTIDE5{K.L.K.K.L.C.[am]}|PEPTIDE6{K.L.K.K.L.C.[am]}|PEPTIDE7{K.L.K.K.L.C.[am]}|PEPTIDE8{K.L.K.K.L.C.[am]}|PEPTIDE9{K.L}|PEPTIDE10{K.L}|PEPTIDE11{K.L}|PEPTIDE12{K.L}$PEPTIDE1,PEPTIDE2,4:R3-3:R2|PEPTIDE1,PEPTIDE3,7:R3-6:R2|PEPTIDE3,PEPTIDE4,4:R3-3:R2|PEPTIDE1,PEPTIDE5,1:R3-6:R3|PEPTIDE2,PEPTIDE6,1:R3-6:R3|PEPTIDE3,PEPTIDE7,1:R3-6:R3|PEPTIDE4,PEPTIDE8,1:R3-6:R3|PEPTIDE5,PEPTIDE9,3:R3-2:R2|PEPTIDE6,PEPTIDE10,3:R3-2:R2|PEPTIDE7,PEPTIDE11,3:R3-2:R2|PEPTIDE8,PEPTIDE12,3:R3-2:R2$$$V2.0	73%	
CC(C)C[C@H](NC(=O)[C@H](CCCNC(=N)N)NC(=O)[C@H](CNC(=O)[C@H](CC(C)C)NC(=O)[C@H](CCCNC(=N)N)NC(=O)[C@H](CNC(=O)[C@H](CC(C)C)NC(=O)[C@@H](N)CCCNC(=N)N)NC(=O)[C@H](CC(C)C)NC(=O)[C@@H](N)CCCNC(=N)N)NC(=O)[C@H](CC(C)C)NC(=O)[C@H](CCCNC(=N)N)NC(=O)[C@H](CNC(=O)[C@H](CC(C)C)NC(=O)[C@@H](N)CCCNC(=N)N)NC(=O)[C@H](CC(C)C)NC(=O)[C@@H](N)CCCNC(=N)N)C(N)=O [MSt-139, (RL)4(BRL)2(BRL)] (I: H-RL[Dap]([Leu-Arg])RL[Dap]RL-NH2 / II: H-RL[Dap]([Leu-Arg])RL; amide I:6-II:C)		TI (MHC/MIC), B. subtilis BR151 [2]: 61; TI (MHC/MIC), E. coli DH5α [3]: 57; TI (therapeutic index = MHC/MIC), P. aeruginosa PAO1 [4]: 485
(KL)16(KKL)8(KKLCxKL)4(KKL)2KKL	42.0%	

Reference: patent US10336792B2 (priority 2014, dated 2019)
